# Laboratory results as given in the supplement of paper PMC10849652.
# By UniProt entry, the sequences of proteins in these tests, tags left out. Where a name states a change or a piece, a line headed by the entry shows the natural chain unless it says otherwise.
# UniProt Q9NWH2: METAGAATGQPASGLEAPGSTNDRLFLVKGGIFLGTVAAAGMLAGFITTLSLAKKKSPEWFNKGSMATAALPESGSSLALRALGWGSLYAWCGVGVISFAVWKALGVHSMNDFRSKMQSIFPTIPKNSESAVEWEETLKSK
# UniProt P42167: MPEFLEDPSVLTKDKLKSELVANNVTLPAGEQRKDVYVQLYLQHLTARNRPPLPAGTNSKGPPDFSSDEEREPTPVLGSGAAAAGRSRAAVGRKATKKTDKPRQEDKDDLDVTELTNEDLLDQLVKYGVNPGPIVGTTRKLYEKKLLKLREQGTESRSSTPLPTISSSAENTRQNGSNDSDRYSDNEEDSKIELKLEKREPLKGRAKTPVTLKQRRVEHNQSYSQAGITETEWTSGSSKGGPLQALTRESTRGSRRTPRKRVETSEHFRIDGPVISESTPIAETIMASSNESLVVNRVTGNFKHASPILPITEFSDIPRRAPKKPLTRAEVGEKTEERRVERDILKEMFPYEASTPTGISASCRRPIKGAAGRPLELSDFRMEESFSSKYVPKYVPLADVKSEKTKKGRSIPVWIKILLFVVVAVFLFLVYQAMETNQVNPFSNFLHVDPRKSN
# UniProt P82094: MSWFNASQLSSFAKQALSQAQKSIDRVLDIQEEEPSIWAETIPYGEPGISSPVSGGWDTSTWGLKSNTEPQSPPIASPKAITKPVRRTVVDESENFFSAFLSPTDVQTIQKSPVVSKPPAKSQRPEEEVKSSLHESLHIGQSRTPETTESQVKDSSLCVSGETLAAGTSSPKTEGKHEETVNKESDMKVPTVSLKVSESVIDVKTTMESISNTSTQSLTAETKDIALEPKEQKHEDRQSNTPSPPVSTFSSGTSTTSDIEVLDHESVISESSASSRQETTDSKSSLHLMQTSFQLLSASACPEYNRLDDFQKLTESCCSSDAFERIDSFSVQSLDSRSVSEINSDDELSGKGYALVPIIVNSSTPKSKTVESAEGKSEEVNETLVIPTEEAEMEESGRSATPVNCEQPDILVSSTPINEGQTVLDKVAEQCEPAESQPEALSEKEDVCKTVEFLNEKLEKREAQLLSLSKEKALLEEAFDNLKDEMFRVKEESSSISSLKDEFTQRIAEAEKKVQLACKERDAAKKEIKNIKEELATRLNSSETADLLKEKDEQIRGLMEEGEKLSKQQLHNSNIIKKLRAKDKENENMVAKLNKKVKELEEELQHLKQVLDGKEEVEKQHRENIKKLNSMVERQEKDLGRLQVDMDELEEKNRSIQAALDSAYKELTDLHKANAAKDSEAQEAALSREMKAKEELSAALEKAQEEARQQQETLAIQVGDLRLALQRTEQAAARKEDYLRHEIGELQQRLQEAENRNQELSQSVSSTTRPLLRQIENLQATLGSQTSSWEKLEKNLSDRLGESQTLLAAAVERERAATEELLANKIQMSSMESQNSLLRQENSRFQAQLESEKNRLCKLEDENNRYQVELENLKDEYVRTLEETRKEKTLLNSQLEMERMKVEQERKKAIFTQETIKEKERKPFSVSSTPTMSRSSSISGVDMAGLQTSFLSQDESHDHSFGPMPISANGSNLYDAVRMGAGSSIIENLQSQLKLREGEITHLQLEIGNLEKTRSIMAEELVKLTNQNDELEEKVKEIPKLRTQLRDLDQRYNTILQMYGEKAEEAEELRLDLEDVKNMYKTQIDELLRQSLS
# UniProt Q9NR96: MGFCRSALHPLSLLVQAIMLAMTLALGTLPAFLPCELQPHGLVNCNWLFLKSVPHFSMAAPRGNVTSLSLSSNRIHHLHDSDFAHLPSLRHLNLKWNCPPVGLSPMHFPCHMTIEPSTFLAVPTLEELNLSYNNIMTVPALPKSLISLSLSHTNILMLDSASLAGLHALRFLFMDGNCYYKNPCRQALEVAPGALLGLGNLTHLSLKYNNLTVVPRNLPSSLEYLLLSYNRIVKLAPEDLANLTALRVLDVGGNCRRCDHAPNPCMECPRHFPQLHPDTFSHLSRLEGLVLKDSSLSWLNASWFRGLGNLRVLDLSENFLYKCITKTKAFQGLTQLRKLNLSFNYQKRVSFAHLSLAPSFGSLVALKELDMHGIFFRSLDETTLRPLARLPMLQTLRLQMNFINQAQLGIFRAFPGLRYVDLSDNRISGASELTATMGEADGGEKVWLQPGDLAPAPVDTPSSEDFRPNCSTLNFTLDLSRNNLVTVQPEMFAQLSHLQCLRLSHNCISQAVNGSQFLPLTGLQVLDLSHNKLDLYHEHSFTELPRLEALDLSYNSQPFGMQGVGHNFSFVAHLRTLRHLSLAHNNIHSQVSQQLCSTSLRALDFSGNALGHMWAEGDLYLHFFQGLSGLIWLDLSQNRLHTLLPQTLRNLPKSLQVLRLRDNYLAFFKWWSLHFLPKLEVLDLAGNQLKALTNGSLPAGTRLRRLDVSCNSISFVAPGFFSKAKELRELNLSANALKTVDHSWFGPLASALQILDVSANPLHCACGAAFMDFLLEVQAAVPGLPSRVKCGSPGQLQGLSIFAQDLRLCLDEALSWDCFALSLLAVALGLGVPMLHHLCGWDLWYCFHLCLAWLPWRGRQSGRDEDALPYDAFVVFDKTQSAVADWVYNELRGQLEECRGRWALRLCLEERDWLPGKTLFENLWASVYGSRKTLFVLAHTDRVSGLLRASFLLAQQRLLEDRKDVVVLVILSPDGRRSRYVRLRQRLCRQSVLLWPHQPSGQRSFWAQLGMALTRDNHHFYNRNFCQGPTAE
# UniProt Q7Z7N9: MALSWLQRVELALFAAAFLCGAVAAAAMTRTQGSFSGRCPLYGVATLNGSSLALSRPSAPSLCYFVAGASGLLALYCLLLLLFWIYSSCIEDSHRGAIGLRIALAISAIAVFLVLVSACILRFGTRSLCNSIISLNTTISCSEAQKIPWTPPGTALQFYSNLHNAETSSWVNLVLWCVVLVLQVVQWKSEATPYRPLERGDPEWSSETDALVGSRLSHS
# UniProt Q96JJ7: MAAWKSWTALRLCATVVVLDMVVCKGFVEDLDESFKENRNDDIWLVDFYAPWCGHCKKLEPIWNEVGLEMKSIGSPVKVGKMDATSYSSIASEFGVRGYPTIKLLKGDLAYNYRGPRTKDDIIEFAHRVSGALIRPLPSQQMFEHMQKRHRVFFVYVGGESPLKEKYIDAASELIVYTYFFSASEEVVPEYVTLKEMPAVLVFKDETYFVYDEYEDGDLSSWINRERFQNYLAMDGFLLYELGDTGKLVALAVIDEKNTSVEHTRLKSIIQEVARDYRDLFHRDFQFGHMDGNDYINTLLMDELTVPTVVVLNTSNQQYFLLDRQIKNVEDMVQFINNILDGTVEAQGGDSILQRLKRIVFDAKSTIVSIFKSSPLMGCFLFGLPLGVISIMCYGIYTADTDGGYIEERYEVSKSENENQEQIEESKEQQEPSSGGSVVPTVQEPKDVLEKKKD
# UniProt Q86XT9, whole entry, looked up: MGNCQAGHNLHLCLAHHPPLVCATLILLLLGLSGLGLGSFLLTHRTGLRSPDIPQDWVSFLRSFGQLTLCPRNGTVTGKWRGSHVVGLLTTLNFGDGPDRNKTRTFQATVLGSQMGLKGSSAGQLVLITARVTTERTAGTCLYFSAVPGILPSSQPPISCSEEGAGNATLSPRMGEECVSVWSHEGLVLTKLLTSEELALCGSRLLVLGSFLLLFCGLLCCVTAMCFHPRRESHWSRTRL
# UniProt Q04727: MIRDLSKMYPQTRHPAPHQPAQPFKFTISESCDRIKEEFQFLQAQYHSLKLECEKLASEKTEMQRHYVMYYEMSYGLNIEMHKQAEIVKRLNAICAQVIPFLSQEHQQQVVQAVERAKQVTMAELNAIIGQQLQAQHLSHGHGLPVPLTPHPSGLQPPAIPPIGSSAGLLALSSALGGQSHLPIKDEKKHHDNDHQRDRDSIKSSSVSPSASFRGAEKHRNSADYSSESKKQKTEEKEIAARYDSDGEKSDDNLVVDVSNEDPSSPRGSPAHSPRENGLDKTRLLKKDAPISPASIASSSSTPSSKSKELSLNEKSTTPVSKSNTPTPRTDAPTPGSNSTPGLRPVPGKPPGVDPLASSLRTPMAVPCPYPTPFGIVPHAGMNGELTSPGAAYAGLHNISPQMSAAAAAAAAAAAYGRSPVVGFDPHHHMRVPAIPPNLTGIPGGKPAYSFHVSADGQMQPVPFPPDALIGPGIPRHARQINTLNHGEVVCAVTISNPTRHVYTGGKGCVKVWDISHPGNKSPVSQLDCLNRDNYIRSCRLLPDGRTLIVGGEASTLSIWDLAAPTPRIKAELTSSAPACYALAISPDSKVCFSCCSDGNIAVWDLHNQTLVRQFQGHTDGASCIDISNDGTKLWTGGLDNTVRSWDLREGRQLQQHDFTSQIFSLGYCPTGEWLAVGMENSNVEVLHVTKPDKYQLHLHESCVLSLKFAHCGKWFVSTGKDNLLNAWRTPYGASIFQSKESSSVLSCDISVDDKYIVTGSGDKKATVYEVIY
# UniProt Q9NV96: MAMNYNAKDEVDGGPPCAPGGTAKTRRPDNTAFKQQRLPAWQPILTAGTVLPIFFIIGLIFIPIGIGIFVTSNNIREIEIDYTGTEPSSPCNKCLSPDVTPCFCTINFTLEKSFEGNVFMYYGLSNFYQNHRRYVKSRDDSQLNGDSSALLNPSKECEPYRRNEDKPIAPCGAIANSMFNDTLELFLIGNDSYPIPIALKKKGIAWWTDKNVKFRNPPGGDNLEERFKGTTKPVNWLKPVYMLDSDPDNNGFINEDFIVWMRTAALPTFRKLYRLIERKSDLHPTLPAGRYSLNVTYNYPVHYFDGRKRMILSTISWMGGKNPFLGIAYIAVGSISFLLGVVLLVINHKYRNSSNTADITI
# UniProt Q9NYL9: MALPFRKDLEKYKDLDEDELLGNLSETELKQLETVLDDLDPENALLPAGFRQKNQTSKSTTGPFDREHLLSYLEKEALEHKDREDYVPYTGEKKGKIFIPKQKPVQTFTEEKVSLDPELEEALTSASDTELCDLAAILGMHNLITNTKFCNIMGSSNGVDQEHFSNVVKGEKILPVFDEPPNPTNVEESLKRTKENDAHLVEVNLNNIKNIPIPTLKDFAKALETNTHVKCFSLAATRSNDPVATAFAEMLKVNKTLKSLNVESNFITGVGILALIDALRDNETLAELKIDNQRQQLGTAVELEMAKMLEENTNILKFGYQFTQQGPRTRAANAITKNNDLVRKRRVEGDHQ
# UniProt Q9NS93: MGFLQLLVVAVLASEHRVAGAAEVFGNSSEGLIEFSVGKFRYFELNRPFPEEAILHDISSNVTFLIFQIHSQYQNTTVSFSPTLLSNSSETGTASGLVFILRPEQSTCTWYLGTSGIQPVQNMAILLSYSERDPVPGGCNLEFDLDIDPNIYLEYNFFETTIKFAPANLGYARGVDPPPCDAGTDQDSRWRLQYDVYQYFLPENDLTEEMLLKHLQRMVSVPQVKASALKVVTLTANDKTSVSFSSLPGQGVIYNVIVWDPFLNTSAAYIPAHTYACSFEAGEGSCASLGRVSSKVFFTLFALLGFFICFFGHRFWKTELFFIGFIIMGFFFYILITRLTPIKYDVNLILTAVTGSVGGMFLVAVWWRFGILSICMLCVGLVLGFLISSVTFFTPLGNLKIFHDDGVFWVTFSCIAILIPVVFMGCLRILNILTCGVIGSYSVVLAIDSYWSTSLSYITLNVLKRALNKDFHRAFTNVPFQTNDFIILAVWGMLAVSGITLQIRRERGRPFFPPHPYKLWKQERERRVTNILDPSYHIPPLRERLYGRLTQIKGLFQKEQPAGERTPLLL
# UniProt Q9UM00: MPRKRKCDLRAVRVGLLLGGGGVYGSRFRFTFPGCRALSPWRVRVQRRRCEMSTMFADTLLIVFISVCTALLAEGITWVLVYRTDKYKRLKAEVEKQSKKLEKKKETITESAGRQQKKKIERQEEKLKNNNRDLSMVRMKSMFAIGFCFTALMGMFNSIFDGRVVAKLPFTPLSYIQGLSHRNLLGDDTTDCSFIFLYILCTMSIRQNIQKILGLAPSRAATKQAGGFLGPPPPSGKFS
# UniProt Q9BZW5, whole entry, looked up: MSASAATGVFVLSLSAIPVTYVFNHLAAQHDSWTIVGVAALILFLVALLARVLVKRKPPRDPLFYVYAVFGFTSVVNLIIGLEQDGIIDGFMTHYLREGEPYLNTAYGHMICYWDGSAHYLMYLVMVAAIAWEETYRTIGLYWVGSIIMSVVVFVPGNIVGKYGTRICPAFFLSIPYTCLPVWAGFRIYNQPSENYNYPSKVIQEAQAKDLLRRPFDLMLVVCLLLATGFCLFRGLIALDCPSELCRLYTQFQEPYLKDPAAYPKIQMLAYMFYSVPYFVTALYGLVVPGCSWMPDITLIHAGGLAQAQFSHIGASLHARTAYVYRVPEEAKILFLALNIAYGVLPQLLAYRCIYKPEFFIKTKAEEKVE
# UniProt P55061, whole entry, looked up: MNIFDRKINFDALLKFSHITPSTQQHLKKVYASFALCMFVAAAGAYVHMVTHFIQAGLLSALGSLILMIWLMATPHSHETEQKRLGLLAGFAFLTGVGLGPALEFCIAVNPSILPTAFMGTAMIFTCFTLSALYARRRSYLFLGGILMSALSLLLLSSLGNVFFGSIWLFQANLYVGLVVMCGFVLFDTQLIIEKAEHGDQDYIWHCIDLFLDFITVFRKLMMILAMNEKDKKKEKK
# The other results are listed elsewhere or left out.
# Key:
# Test in all cases: log2 fold change, soluble protein after heating vs DMSO (PISA); higher = thermal stabilisation; K562 cells, 10 uM, 30 min; active = over 0.2 and 3.5 SD of the protein, either way, in both replicates (recomputed)
# [1] = compound: NC(=O)Nc1cc(-c2cccc(F)c2)sc1C(=O)N[C@H]1CCCNC1
# Summary of the method: (§1)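 K562 cells at 2×10^6 cells/mL were given 10 μM compound for 30 min. Aliquots then went through 3 min of heating across 48°C-58°C, were pooled, and were extracted in PBS with 0.5% NP-40 at 4°C, and the supernatant after 21,000xg for 90 min was quantified by TMTpro 16plex LC-MS/MS with channel sums equalised. Thermal stability relative to control samples, from duplicates, is given as log2 fold change.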
# [2] = compound: NC1(c2ccc(-c3nc4ccn5c(=O)[nH]nc5c4cc3-c3ccccc3)cc2)CCC1
# Summary of the method: as §1
# [3] = compound: NCC(=O)Nc1ccc(-n2nc(C(F)(F)F)cc2-c2ccc3c(ccc4ccccc43)c2)cc1
# Summary of the method: as §1
# entinostat = compound: Nc1ccccc1NC(=O)c1ccc(CNC(=O)OCc2cccnc2)cc1 [entinostat]
# Summary of the method: as §1
# vorinostat = compound: O=C(CCCCCCC(=O)Nc1ccccc1)NO [vorinostat]
# Summary of the method: as §1
# citarinostat = compound: O=C(CCCCCCNC(=O)c1cnc(N(c2ccccc2)c2ccccc2Cl)nc1)NO [citarinostat]
# Summary of the method: as §1
# silmitasertib = compound: O=C(O)c1ccc2c(c1)nc(Nc1cccc(Cl)c1)c1ccncc12 [silmitasertib]
# Summary of the method: as §1
# [4] = compound: O=C1NC(=O)C(c2cnc3ccccn23)=C1c1cn2c3c(cc(F)cc13)CN(C(=O)N1CCCCC1)CC2
# Summary of the method: as §1
# [5] = compound: c1cc(OCCN2CCCCC2)cc(-c2n[nH]c3ccc(-c4nnc[nH]4)cc23)c1
# Summary of the method: as §1
# [6] = compound: NC(=O)c1cnc(N[C@@H]2CCCC[C@@H]2N)nc1Nc1cccc(-n2nccn2)c1
# Summary of the method: as §1
Target,log2 fold change [1],log2 fold change [2],log2 fold change [3],log2 fold change (entinostat),log2 fold change (vorinostat),log2 fold change (citarinostat),log2 fold change (silmitasertib),log2 fold change [4],log2 fold change [5],log2 fold change [6]
TMEM237 isoform 3 (UniProt Q96Q45),inactive: 0.019,inactive: 0.102,inactive: 0.26,inactive: 0.097,inactive: 0.272,inactive: 0.05,inactive: 0.104,inactive: 0.265,inactive: -0.148,
TMCC1 (UniProt O94876),inactive: -0.002,inactive: -0.165,,inactive: 0.084,inactive: -0.079,,inactive: 0.074,inactive: 0.098,,inactive: -0.04
TMEM14C (UniProt Q9P0S9),inactive: 0.105,inactive: 0.011,inactive: 0.047,inactive: -0.04,inactive: 0.086,inactive: 0.107,inactive: 0.052,,inactive: -0.086,inactive: -0.08
TMEM8A (UniProt Q9HCN3),inactive: -0.059,inactive: -0.393,inactive: -0.048,inactive: -0.485,inactive: -0.077,inactive: -0.037,inactive: 0.053,,inactive: -0.056,
TMEM128 (UniProt Q5BJH2),inactive: -0.059,,inactive: -0.092,inactive: -0.036,,inactive: -0.131,,inactive: -0.037,inactive: -0.07,inactive: -0.167
TLN1 (UniProt Q9Y490),inactive: 0.026,inactive: -0.119,inactive: -0.054,inactive: 0.052,inactive: 0.025,inactive: 0.059,inactive: 0.015,inactive: -0.03,inactive: 0.017,inactive: -0.057
TMEM242 (UniProt Q9NWH2),inactive: 0.011,inactive: -0.011,inactive: -0.099,inactive: -0.003,inactive: -0.058,inactive: 0.005,inactive: 0.059,inactive: 0.016,inactive: -0.113,inactive: -0.123
TMPO (UniProt P42167),inactive: -0.016,inactive: 0.014,inactive: -0.01,inactive: -0.005,inactive: 0.029,inactive: -0.007,inactive: 0.064,inactive: 0.007,inactive: -0.013,inactive: 0.003
TMF1 (UniProt P82094),inactive: 0.018,inactive: -0.022,inactive: -0.016,inactive: -0.002,inactive: -0.013,inactive: 0.034,inactive: 0.058,inactive: -0.026,inactive: -0.025,inactive: -0.009
TMLHE isoform 8 (UniProt Q9NVH6),inactive: 0.091,inactive: -0.103,inactive: -0.086,inactive: -0.042,inactive: 0.005,inactive: 0.043,inactive: -0.051,inactive: 0.003,inactive: -0.03,inactive: -0.044
TMOD1 (UniProt P28289),inactive: -0.024,inactive: -0.102,inactive: -0.046,inactive: 0.052,inactive: 0.134,inactive: 0.111,inactive: 0.13,inactive: 0.047,inactive: -0.096,inactive: -0.077
TLR9 isoform 4 (UniProt Q9NR96),inactive: -0.068,inactive: -0.12,inactive: -0.088,inactive: 0.018,,inactive: -0.073,inactive: 0.075,inactive: -0.121,inactive: 0,inactive: -0.063
TMEM179B (UniProt Q7Z7N9),inactive: -0.235,inactive: -0.255,,inactive: 0.04,inactive: -0.156,inactive: -0.019,inactive: -0.043,inactive: -0.173,inactive: -0.112,inactive: 0.079
TMX3 (UniProt Q96JJ7),inactive: 0.173,inactive: -0.035,inactive: -0.016,inactive: 0.061,inactive: 0.027,inactive: 0.01,inactive: 0.02,inactive: -0.021,inactive: -0.037,inactive: -0.01
TMEM205 (UniProt Q6UW68),inactive: -0.028,inactive: 0.056,inactive: 0.133,inactive: -0.003,inactive: -0.124,inactive: 0.049,inactive: 0.042,inactive: 0,inactive: -0.057,
TMEM219 (UniProt Q86XT9),inactive: 0.079,,inactive: 0.036,inactive: 0.052,active: 0.389,,,inactive: -0.025,,inactive: 0.033
TLE4 isoform 3 (UniProt Q04727),inactive: 0.018,inactive: -0.043,inactive: -0.02,inactive: 0.021,inactive: -0.006,inactive: 0.005,inactive: -0.031,inactive: -0.035,inactive: -0.048,inactive: -0.049
TMEM30A (UniProt Q9NV96),inactive: -0.07,inactive: 0.016,inactive: -0.015,inactive: -0.086,inactive: 0.003,inactive: 0.023,inactive: -0.03,inactive: 0.029,inactive: -0.002,inactive: -0.014
TMOD3 (UniProt Q9NYL9),inactive: -0.031,inactive: -0.037,inactive: 0,inactive: 0.017,inactive: 0.057,inactive: 0.016,inactive: 0.079,inactive: 0.007,inactive: -0.027,inactive: 0.041
TMEM123 (UniProt Q8N131),inactive: 0.001,inactive: 0.137,inactive: -0.019,inactive: 0,,inactive: 0.096,inactive: 0.101,inactive: 0.017,inactive: -0.092,inactive: -0.04
TM7SF3 (UniProt Q9NS93),inactive: 0.091,active: -0.359,,inactive: 0.076,,inactive: 0.179,inactive: 0.066,,inactive: 0.084,inactive: 0.048
TMCO1 (UniProt Q9UM00),inactive: -0.047,inactive: 0.074,inactive: 0.032,inactive: 0.035,inactive: -0.045,inactive: -0.003,inactive: -0.092,inactive: -0.069,inactive: 0.061,inactive: -0.065
TMEM268 isoform 3 (UniProt Q5VZI3),inactive: 0.12,inactive: -0.141,,inactive: 0.059,inactive: 0.162,inactive: 0.084,inactive: -0.114,inactive: 0.174,inactive: -0.117,inactive: 0.057
TMEM189 (UniProt A5PLL7),inactive: 0.133,inactive: -0.097,inactive: 0.248,inactive: 0.136,inactive: 0.052,inactive: 0.114,inactive: 0.022,inactive: -0.235,inactive: -0.03,inactive: 0.109
TMEM131 (UniProt Q92545),inactive: 0.09,,,inactive: 0.023,inactive: -0.073,,,,,inactive: -0.014
TM6SF1 (UniProt Q9BZW5),inactive: 0.054,inactive: 0.061,inactive: -0.017,inactive: -0.063,inactive: 0.023,,inactive: 0.142,inactive: -0.029,,inactive: 0.085
TLN2 (UniProt Q9Y4G6),inactive: 0.055,inactive: 0.032,inactive: 0.055,inactive: 0.01,inactive: 0.033,inactive: -0.02,inactive: 0.045,inactive: -0.018,inactive: -0.094,inactive: 0.011
TMEM43 (UniProt Q9BTV4),inactive: 0.02,inactive: -0.083,inactive: 0.042,inactive: 0.013,inactive: 0.05,inactive: 0.013,inactive: 0.022,inactive: 0.032,inactive: -0.077,inactive: 0
TMEM147 (UniProt Q9BVK8),inactive: -0.035,inactive: -0.12,inactive: -0.179,inactive: 0.026,,,inactive: 0.174,inactive: 0.045,,inactive: -0.089
TMBIM6 isoform 2 (UniProt P55061),inactive: 0.027,inactive: 0.189,inactive: -0.015,inactive: 0.044,,inactive: 0.05,inactive: -0.206,inactive: -0.089,inactive: -0.067,inactive: -0.119

# Only log2 fold change (vorinostat), log2 fold change [3] and log2 fold change [1], for some of the entries so far:
Target | log2 fold change (vorinostat) | log2 fold change [3] | log2 fold change [1]
TM7SF3 (UniProt Q9NS93) |  |  | inactive: 0.091
TMCO1 (UniProt Q9UM00) | inactive: -0.045 | inactive: 0.032 | inactive: -0.047
